# Results taken from US20090275639A1.
# The chains behind the UniProt entries cited, without tags or fusion partners. Where a name states a change or a piece, a line headed by the entry shows the natural chain unless it says otherwise.
# UniProt Q9Y297: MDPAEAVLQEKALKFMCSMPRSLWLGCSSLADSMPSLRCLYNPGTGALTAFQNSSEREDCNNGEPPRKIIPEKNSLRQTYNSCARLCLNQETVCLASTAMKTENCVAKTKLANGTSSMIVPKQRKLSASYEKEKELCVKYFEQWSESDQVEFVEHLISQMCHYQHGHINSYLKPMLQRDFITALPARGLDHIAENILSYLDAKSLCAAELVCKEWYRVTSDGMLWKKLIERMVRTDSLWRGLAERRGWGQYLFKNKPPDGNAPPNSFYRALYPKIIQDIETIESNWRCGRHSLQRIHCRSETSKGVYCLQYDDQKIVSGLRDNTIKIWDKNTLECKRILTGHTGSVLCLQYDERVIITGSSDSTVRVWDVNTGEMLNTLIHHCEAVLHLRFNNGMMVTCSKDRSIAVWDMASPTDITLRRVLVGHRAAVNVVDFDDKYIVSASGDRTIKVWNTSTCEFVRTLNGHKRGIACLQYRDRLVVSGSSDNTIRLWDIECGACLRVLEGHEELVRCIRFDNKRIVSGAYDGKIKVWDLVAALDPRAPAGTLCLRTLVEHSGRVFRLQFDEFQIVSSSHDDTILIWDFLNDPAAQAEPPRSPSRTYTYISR
# Results are given in words; binding and its absence hold for the method and conditions named. For some assays here: Binding seen in cells or lysates may run through a third protein. Some binding calls cover weakened binding; strength is not graded here.
# Experiments:
# [1] = molecular target: FLAG-tagged β-TrCP1 (human) (UniProt Q9Y297); test: co-immunoprecipitation and Western blot
# [2] = molecular target: FLAG-tagged β-TrCP1 (human) (UniProt Q9Y297); test: anti-FLAG immunoprecipitation of FLAG-tagged F-box proteins from 293T cells, Western blot for USP47
binder,measurement,setting,value
USP47 (ubiquitin specific protease 47) (enzyme) MVPGEENQLVPKEAPLDHTSDKSLLDANFEPGKKNFLHLTDKDGEQPQILLEDSSAGEDSVHDRFIGPLPREGSGGSTSDYVSQSYSYSSILNKSETGYVGLVNQAMTCYLNSLLQTLFMTPEFRNALYKWEFEESEEDPVTSIPYQLQRLFVLLQTSKKRAIETTDVTRSFGWDSSEAWQQHDVQELCRVMFDALEQKWKQTEQADLINELYQGKLKDYVRCLECGYEGWRIDTYLDIPLVIRPYGSSQAFASVEEALHAFIQPEILDGPNQYFCERCKKKCDARKGLRFLHFPYLLTLQLKRFDFDYTTMHRIKLNDRMTFPEELDMSTFIDVEDEKSPQTESCTDSGAENEGSCHSDQMSNDFSNDDGVDEGICLETNSGTEKISKSGLEKNSLIYELFSVMVHSGSAAGGHYYACIKSFSDEQWYSFNDQHVSRITQEDIKKTHGGSSGSRGYYSSAFASSTNAYMLIYRLKDPARNAKFLEVDEYPEHIKNLVQKERELEEQEKRQREIERNTCKIKLFCLHPTKQVMMENKLEVHKDKTLKEAVEMAYKMMDLEEVIPLDCCRLVKYDEFHDYLERSYEGEEDTPMGLLLGGVKSTYMFDLLLETRKPDQVFQSYKPGEVMVKVHVVDLKAESVAAPITVRAYLNQTVTEFKQLISKAIHLPAETMRIVLERCYNDLRLLSVSSKTLKAEGFFRSNKVFVESSETLDYQMAFADSHLWKLLDRHANTIRLFVLLPEQSPVSYSKRTAYQKAGGDSGNVDDDCERVKGPVGSLKSVEAILEESTEKLKSLSLQQQQDGDNGDSSKSTETSDFENIESPLNERDSSASVDNRELEQHIQTSDPENFQSEERSDSDVNNDRSTSSVDSDILSSSHSSDTLCNADNAQIPLANGLDSHSITSSRRTKANEGKKETWDTAEEDSGTDSEYDESGKSRGEMQYMYFKAEPYAADEGSGEGHKWLMVHVDKRITLAAFKQHLEPFVGVLSSHFKVFRVYASNQEFESVRLNETLSSFSDDNKITIRLGRALKKGEYRVKVYQLLVNEQEPCKFLLDAVFAKGMTVRQSKEELIPQLREQCGLELSIDRFRLRKKTWKNPGTVFLDYHIYEEDINISSNWEVFLEVLDGVEKMKSMSQLAVLSRRWKPSEMKLDPFQEVVLESSSVDELREKLSEISGIPLDDIEFAKGRGTFPCDISVLDIHQDLDWNPKVSTLNVWPLYICDDGAVIFYRDKTEELMELTDEQRNELMKKESSRLQKTGHRVTYSPRKEKALKIYLDGAPNKDLTQD,binding,[1],binds
same,binding,[2],binds
